# Reference: paper PMC7819943, “Rice protein-binding microarrays: a tool to detect cis-acting elements near promoter regions in rice”
# By UniProt entry, the sequences of proteins in these tests, tags left out.
# UniProt Q0JBA9, entry or part of it: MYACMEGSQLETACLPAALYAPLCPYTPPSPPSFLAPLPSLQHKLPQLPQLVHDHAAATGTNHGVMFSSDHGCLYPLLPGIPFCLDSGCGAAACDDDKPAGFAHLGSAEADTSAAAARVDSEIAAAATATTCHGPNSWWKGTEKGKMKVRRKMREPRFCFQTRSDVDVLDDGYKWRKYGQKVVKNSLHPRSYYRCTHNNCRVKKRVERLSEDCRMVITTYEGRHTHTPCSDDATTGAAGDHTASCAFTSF
# This is one part of the list.
# Molecular target: OsWRKY34 (Oryza sativa, UniProt Q0JBA9 1-250)
# Test: protein-binding microarray (RPBM); PBS, 2% BSA, 51.3 ng/ul salmon testes DNA, 50 uM zinc acetate, 200 nM TF, 25 C, 1 h; high values mean tight binding
# Conditions: protein: recombinant; tags: N-terminal polyhistidine and DsRed monomer fusion (pET32a); label: CyDye5-dUTP incorporated in the synthesized complementary strand; 3' TTTTT single-stranded linker to array surface; dsDNA, one strand shown
# Procedure, shortened: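 The binding signal for each feature is its fluorescence intensity in arbitrary units. An Axon 4000B scanner was used to read a custom Agilent array that had been made double-stranded with Cy5-dUTP primer extension, blocked with 2% BSA, incubated at 25 °C for 1 h with 200 nM protein in PBS, 2% BSA, salmon testes DNA and 50 µM zinc acetate, and washed. The protein was an N-terminal polyhistidine–DsRed transcription factor fusion from E. coli BL21-CodonPlus, purified on Ni–NTA.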
row,Sequence,binding signal
1,TGTTGCCGTTTTAAAGCACTTTTTGCTATTTTGGATCTAACGGAGTCACCTAGTGCAG,8430 fluorescence intensity (a.u.)
2,AAATCGCCGACCCACACAACCCGCAACCCCACATCTCTCACGGAGTCACCTAGTGCAG,12500 fluorescence intensity (a.u.)
3,CTCATTGTTCAGTCTGACTGCCTGAGTCTTTTTCCTGGAACGGAGTCACCTAGTGCAG,10000 fluorescence intensity (a.u.)
4,TTTGTCCCGATCAATAACAATCTTTCCTCTCGACGAAAGCCGGAGTCACCTAGTGCAG,8210 fluorescence intensity (a.u.)
5,TGAGGGGTTTTTTATTCCAATAAATTGTTCGTTACCGTATCGGAGTCACCTAGTGCAG,8060 fluorescence intensity (a.u.)
6,GGAGGTGGAGGCGGCGGAGGAGGTGGTGGTGGAGGTGGAGCGGAGTCACCTAGTGCAG,17900 fluorescence intensity (a.u.)
7,AAGAATTACAAAACTCATGTGTTCCACCGCTACTAGCGACCGGAGTCACCTAGTGCAG,8300 fluorescence intensity (a.u.)
8,GGTATTTCAGTTCCTTTTAGCAGTCAAGTCATGATAGTTACGGAGTCACCTAGTGCAG,8100 fluorescence intensity (a.u.)
9,ATACTACTTGCGCCTGTTTGGAGTCGAGACACATTGACAACGGAGTCACCTAGTGCAG,9210 fluorescence intensity (a.u.)
10,AGCTTACCCAGCTCGCGCGAATGGCCTCCTACGACGGCGGCGGAGTCACCTAGTGCAG,9110 fluorescence intensity (a.u.)
11,CTTTCGTCTTCGTCTTCGCCATCGTCGTCGGGACATCGCCCGGAGTCACCTAGTGCAG,8460 fluorescence intensity (a.u.)
12,CACCACGCGTTCACACGGCCACGTCAGCCTACTACGCCTGCGGAGTCACCTAGTGCAG,8030 fluorescence intensity (a.u.)
13,GTTCTCGTGTGGACTTTATTCCCTGCCGATCCGTTCCGGCCGGAGTCACCTAGTGCAG,10500 fluorescence intensity (a.u.)
14,CTTCTTACGTATCGGTTTCGATTATTTTGGTTATTGTGTTCGGAGTCACCTAGTGCAG,12800 fluorescence intensity (a.u.)
15,TTTCTAGGCGAGTTATAAGATTAGTTTTTTCATTCGTGTCCGGAGTCACCTAGTGCAG,8210 fluorescence intensity (a.u.)
16,CTGGTTGGCTGGTTCTTCAGGATTTGGATCTGTGGTCCTGCGGAGTCACCTAGTGCAG,8400 fluorescence intensity (a.u.)
17,CTTTTGAAGCTTGACGGGTTTTGACTTGGTGCACTGATTACGGAGTCACCTAGTGCAG,10100 fluorescence intensity (a.u.)
18,GGATAGCCTTGCCTAACGTTATTTTCTGTCAACTTCGACTCGGAGTCACCTAGTGCAG,9160 fluorescence intensity (a.u.)
19,CTTATCCCGCGATCCGAACACCATCCACTCGCCGCGCCAACGGAGTCACCTAGTGCAG,9780 fluorescence intensity (a.u.)
20,GTAATAGTCAATTCATACAATAGTTGTTTACTATACTATTCGGAGTCACCTAGTGCAG,8190 fluorescence intensity (a.u.)
21,TTTCCTCCATTTTCTCAATCCTACATTTCAAAGGAGCCCACGGAGTCACCTAGTGCAG,8690 fluorescence intensity (a.u.)

row,Sequence,binding signal
1,TGCGTGACGTGGGGATGAGATTGCGTTGTTGCTGCGCCCGCGGAGTCACCTAGTGCAG,8830 fluorescence intensity (a.u.)
2,TGTCTGTGTCAATTGTGCCATCCTAACCAAATGTTCGTAGCGGAGTCACCTAGTGCAG,8960 fluorescence intensity (a.u.)
3,GTGCTCTTGTATCTTTTTAGCTATGTATATCCCTCGTGGACGGAGTCACCTAGTGCAG,8650 fluorescence intensity (a.u.)
4,CGCTGCCGTCGCCGTGCCTTAGTCGCTCTCCTTCTCTCCACGGAGTCACCTAGTGCAG,9250 fluorescence intensity (a.u.)
5,TCCTTCCACCTTTTTAATTTCTTTAATTTGCATGTCTCTCCGGAGTCACCTAGTGCAG,8390 fluorescence intensity (a.u.)
6,ACCTCCTTGCCACCACTGCCTCGGTGCCAGCTGTGTCCTACGGAGTCACCTAGTGCAG,11500 fluorescence intensity (a.u.)
7,CCCACACGTCAGCCACCCCAAACAGCCCATCGCCACGCCACGGAGTCACCTAGTGCAG,8760 fluorescence intensity (a.u.)
8,CCCTGCTGCTTTTCTGGTTTCCTAATTATTCTCCTCAATTCGGAGTCACCTAGTGCAG,9880 fluorescence intensity (a.u.)
9,TGCGTGTTTTGTCCGCTTTTGCATTCGATTTTCTTTGATGCGGAGTCACCTAGTGCAG,9260 fluorescence intensity (a.u.)
10,ACGCCCTAATCCTCTCTCCTTCTCACATGCCGCCGCCGATCGGAGTCACCTAGTGCAG,9480 fluorescence intensity (a.u.)
11,CACACCGTGCGCTGTGCTCCACTCCACCATCGCTCGCGACCGGAGTCACCTAGTGCAG,8290 fluorescence intensity (a.u.)
12,AATTCAAATATGCTTCCACGTATTATTTAGCCACTCATTTCGGAGTCACCTAGTGCAG,11200 fluorescence intensity (a.u.)
13,CAAATTTTCCGTCGTGTCGTTCTAATTTCAATCAAATTTCCGGAGTCACCTAGTGCAG,13700 fluorescence intensity (a.u.)
14,AATTTGCAATTGCCCGTTCTTTTATACGCAGAGACTCCGACGGAGTCACCTAGTGCAG,8640 fluorescence intensity (a.u.)
15,GAACCTTGGCGATCTCTCTCTTTTCTACCTCTCTTCATACCGGAGTCACCTAGTGCAG,12000 fluorescence intensity (a.u.)
16,GTAATCAGATCGTCAATATTTTTTTTCAAATCGTAATTATCGGAGTCACCTAGTGCAG,9180 fluorescence intensity (a.u.)
17,CCAAGGCTGCAATTTTTTCCCCATAATCAGGTATACGAATCGGAGTCACCTAGTGCAG,8750 fluorescence intensity (a.u.)
18,CCTCGCCTCCACGACCGGTCGCCGCCTCGTCCGCGACCGCCGGAGTCACCTAGTGCAG,8480 fluorescence intensity (a.u.)
19,TAGTGATCCGAAACATAGACTGCATTTTTCTCATATTTTCCGGAGTCACCTAGTGCAG,9050 fluorescence intensity (a.u.)
20,CAATGTTGTTGAGACCATTTTGCCTGATTGTTTTCTATTCCGGAGTCACCTAGTGCAG,9670 fluorescence intensity (a.u.)
21,GAAAATAATTGTCGTACACTCGCAGCTATATTTGTTATTTCGGAGTCACCTAGTGCAG,8340 fluorescence intensity (a.u.)

# Part of the list above, set out differently:
row | Sequence | binding signal
13 | CAAATTTTCCGTCGTGTCGTTCTAATTTCAATCAAATTTCCGGAGTCACCTAGTGCAG | 13700 fluorescence intensity (a.u.)
14 | AATTTGCAATTGCCCGTTCTTTTATACGCAGAGACTCCGACGGAGTCACCTAGTGCAG | 8640 fluorescence intensity (a.u.)
15 | GAACCTTGGCGATCTCTCTCTTTTCTACCTCTCTTCATACCGGAGTCACCTAGTGCAG | 12000 fluorescence intensity (a.u.)

# (listing goes on)

row,Sequence,binding signal
1,CTCCTCCTGTCCTGGCCCTTGTCTTCTCCACGTCTCTCCCCGGAGTCACCTAGTGCAG,9200 fluorescence intensity (a.u.)
2,TCCTACTACTAGTCAATCGTTTGACTATTCGTCCTATTAACGGAGTCACCTAGTGCAG,11900 fluorescence intensity (a.u.)
3,GCCTACAAAACTCGAGTATTATCTTCATCCATCCCTAATCCGGAGTCACCTAGTGCAG,9800 fluorescence intensity (a.u.)
4,ACATGTAGCCATATGGGTTCTACGGTTTTTATTATTTTTTCGGAGTCACCTAGTGCAG,8380 fluorescence intensity (a.u.)
5,CCCCACATCTTTTGCTAGCATGCCCCTACCCATTCATATTCGGAGTCACCTAGTGCAG,10500 ± 300 fluorescence intensity (a.u.)
6,GCTCGCGCGCGCCGCGACGTCGTCGGAGCCAACATTATTTCGGAGTCACCTAGTGCAG,8080 fluorescence intensity (a.u.)
7,CTAGTGTGCATTTAACCACAGCAGCTGGTATGATAGTCCCCGGAGTCACCTAGTGCAG,8490 fluorescence intensity (a.u.)
8,TCTCGATTCCAGCCCAACTAGCGCCACTCCCACCTGGGCCCGGAGTCACCTAGTGCAG,8170 fluorescence intensity (a.u.)
9,ACCTACATTGGTCTTACTGGCATGCCTGAACTTCCCTGCACGGAGTCACCTAGTGCAG,8170 fluorescence intensity (a.u.)
10,ATCTGATCTGCTGGGTTTGTGGGAAGGGGCATATAAGGAGCGGAGTCACCTAGTGCAG,12000 fluorescence intensity (a.u.)
11,CCCGCCCATCGCCGCTCCGCCCTCTCCGCCGCTGGCCTCACGGAGTCACCTAGTGCAG,8420 fluorescence intensity (a.u.)
12,CTTGTACTTGGTGGTATACCCCTAGCTGCTCGCCTTTGTGCGGAGTCACCTAGTGCAG,10200 fluorescence intensity (a.u.)
13,TCTCTCTCTCTCTCTCTCTCTCTCTCTCTCTGTCTCTCTCCGGAGTCACCTAGTGCAG,10200 fluorescence intensity (a.u.)
14,AATCGGGGAAGCCTATCGGTTAGTTAGGAGTTGAGTTGACCGGAGTCACCTAGTGCAG,9230 fluorescence intensity (a.u.)
15,GCCTAGTTGATTGAACATTCGTTTTCTTTCAACAAATAAGCGGAGTCACCTAGTGCAG,8310 fluorescence intensity (a.u.)
16,TCCGGCTATTCTCATTGCCGGCCAAGCCTTTTTCTTCTACCGGAGTCACCTAGTGCAG,8130 fluorescence intensity (a.u.)
17,CACACTTTATTCTCCTATATCTAAAGAGCACAGGAACGGGCGGAGTCACCTAGTGCAG,8370 fluorescence intensity (a.u.)
18,ATTCCTGTGTTTTTCCTGTGTTTTGCAATCCTCTGTTTTACGGAGTCACCTAGTGCAG,10200 fluorescence intensity (a.u.)
19,ACACTTACCTAGCTAATTGTCCAACTGCCCCTACCTTGGACGGAGTCACCTAGTGCAG,9630 fluorescence intensity (a.u.)
20,GTACGTACAACATTGTGTATCTGTTTTGTAAGTTATTAACCGGAGTCACCTAGTGCAG,9710 fluorescence intensity (a.u.)
21,GCCGCCGCGCTCGCCCACCGCCCGCCCATCGCCGCTCCGCCGGAGTCACCTAGTGCAG,9990 fluorescence intensity (a.u.)

row,Sequence,binding signal
1,AATTACAATTTCTTAATCTTTGCGTCTAAACCAGTTACACCGGAGTCACCTAGTGCAG,8490 fluorescence intensity (a.u.)
2,ACTAATTATTGTGTTAGTGAGCTTTCTTTGTTTTTTTGTTCGGAGTCACCTAGTGCAG,9670 fluorescence intensity (a.u.)
3,CTTCACTCACATTGTACCTAAGCTGGCCTTGACTGGAAAGCGGAGTCACCTAGTGCAG,8600 fluorescence intensity (a.u.)
4,ACTTCCTTTCTTGTTAAGTTGGCGTGATGTTTTCTGCTGACGGAGTCACCTAGTGCAG,8300 fluorescence intensity (a.u.)
5,TAGAATATACAGTTTCAGTCGGGCTCTGCGCTCAGTTTGTCGGAGTCACCTAGTGCAG,9560 fluorescence intensity (a.u.)
6,CTCTCCCATCGTGACTACTTTTGTCTGGATATTGTTTGCGCGGAGTCACCTAGTGCAG,10400 fluorescence intensity (a.u.)
7,GATTCTTCATATTTTGTTCAGATCTCTGCCTATTCTTCTCCGGAGTCACCTAGTGCAG,8860 fluorescence intensity (a.u.)
8,GTTCATCCTTCACTATCTCTTTGAAAGATTCTTCATGATTCGGAGTCACCTAGTGCAG,8730 fluorescence intensity (a.u.)
9,TCGTTTCAGTTTTCTTGCTCACGATTTAGGTTTGTTTCCTCGGAGTCACCTAGTGCAG,10000 fluorescence intensity (a.u.)
10,ATCCATACCCTAATATGTCCATCGTTGCTGGTGCTTGGCACGGAGTCACCTAGTGCAG,8230 fluorescence intensity (a.u.)
11,CACTATAGTCTTTTACAACCGTCGATAAAATTCAGTCGTACGGAGTCACCTAGTGCAG,8270 fluorescence intensity (a.u.)
12,GGACACCCACGTCCACATCGGCGACCGCCGCCCCAACGCCCGGAGTCACCTAGTGCAG,8330 fluorescence intensity (a.u.)
13,GGTGGGGTCTCGTCTCGTCGCCGGTGAAGCCGCCGCCATGCGGAGTCACCTAGTGCAG,10600 fluorescence intensity (a.u.)
14,TTTGTGCAATCTGCAGTCGTCCCATGTCGATTTTGTGCAACGGAGTCACCTAGTGCAG,8240 fluorescence intensity (a.u.)
15,CGGAGAGAGCAGGGGCGGTGGGCGGTGGGCCCGTGCTCGCCGGAGTCACCTAGTGCAG,8500 fluorescence intensity (a.u.)
16,GTTTATTGTATTTGGAGTAAGTGATTGTAACTTTTTTTTACGGAGTCACCTAGTGCAG,9200 fluorescence intensity (a.u.)
17,CTAATACTTAATTAATCACGCGCTAATGGACCGTTTCGTTCGGAGTCACCTAGTGCAG,10200 fluorescence intensity (a.u.)
18,TCACACGGTTGCAAGAGTCTACATTTTAACATGTTTTTTTCGGAGTCACCTAGTGCAG,8040 fluorescence intensity (a.u.)
19,TCTAACTACTACCATGCACCTTTCTCTTTATTTGCATAAGCGGAGTCACCTAGTGCAG,9320 fluorescence intensity (a.u.)
20,GTATCCTAGTTAACCCAAGTGTTTAATTCTGTCTGTATACCGGAGTCACCTAGTGCAG,8670 fluorescence intensity (a.u.)
21,AGACACCACCTACCGCGCGCGTCGCGTACTCGCGTGCCCACGGAGTCACCTAGTGCAG,9060 fluorescence intensity (a.u.)
